Earlier results as cited in patent US8063181B2, “Method for the production of cyclic molecules” (ZYRUS Beteiligungsgesellschaft mbH & Co. Patent I KG, priority 2003, dated 2011).
Some entries share one result that the patent states for a list of compounds.

Conditions: leaving group quality; cited from earlier work

CC(C)(COP(=O)(O)OP(=O)(O)OC[C@H]1O[C@@H](n2cnc3c(N)ncnc32)[C@H](O)[C@@H]1OP(=O)(O)O)[C@@H](O)C(=O)NCCC(=O)NCCS [CoA, coenzyme A]
pKA value: 10-11
